This passage reports binding results from publication doi:10.1101/2021.05.26.443198.

Test [1] deals with STAT3 (human (in human breast cancer cells)), P40763. Nature of the test: proximity ligation. The settings on record: remark: other sources report otherwise.
Test [2] has the same target. Briefly: co-IP. Conditions: remark: other sources report otherwise.

Results are given in words; binding and its absence hold for the method and conditions named. In cells and extracts the contact can be indirect. Some results given as binding are weak or reduced against the parent protein; the word gives no strength.

B1: LMO2, P25791 1-158 (protein)
chain: MSSAIERKSLDPSEEPVDEVLQIPPSLLTCGGCQQNIGDRYFLKAIDQYWHEDCLSCDLCGCRLGEVGRRLYYKLGRKLCRRDYLRLFGQDGLCASCDKRIRAYEMTMRVKDKVYHLECFKCAACQKHFCVGDRYLLINSDIVCEQDIYEWTKINGMI
In the case of B1, the binding entry in test [1] and in test [2] was “binds” in each case.
